From publication PMC6503954 come the findings set out here.

For assay [1], the target named is T1, GFP-tagged aPKCι (UniProt P41743).
T1 sequence: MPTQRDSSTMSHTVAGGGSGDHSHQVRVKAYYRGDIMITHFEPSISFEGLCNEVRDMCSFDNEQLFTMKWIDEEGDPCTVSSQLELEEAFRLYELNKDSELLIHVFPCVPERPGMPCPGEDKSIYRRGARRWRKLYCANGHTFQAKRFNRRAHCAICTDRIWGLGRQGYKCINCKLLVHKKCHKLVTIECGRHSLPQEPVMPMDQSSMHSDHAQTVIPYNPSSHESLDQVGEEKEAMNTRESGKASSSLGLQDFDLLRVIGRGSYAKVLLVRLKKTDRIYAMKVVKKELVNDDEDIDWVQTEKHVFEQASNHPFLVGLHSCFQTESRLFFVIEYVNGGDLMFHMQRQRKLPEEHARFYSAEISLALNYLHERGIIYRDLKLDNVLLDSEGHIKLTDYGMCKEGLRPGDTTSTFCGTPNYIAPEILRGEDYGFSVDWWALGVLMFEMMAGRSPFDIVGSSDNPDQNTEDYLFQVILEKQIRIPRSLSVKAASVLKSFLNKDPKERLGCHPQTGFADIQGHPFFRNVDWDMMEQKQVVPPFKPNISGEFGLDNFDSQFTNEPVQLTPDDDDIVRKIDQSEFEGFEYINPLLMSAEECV
Put plainly: co-IP; HCT116 cells co-transfected; GFP-Trap-M or FLAG-M2 beads, 4°C, 90 min; lysis buffer 20 mM Tris-HCl pH 8, 130 mM NaCl, 1% Triton X-100, 1 mM DTT, 10 mM NaF; some samples with the aPKCι inhibitor CRT0066854.

The target of assay [2] is T2, aPKCι kinase domain (expressed in cells) (UniProt P41743).
T2 sequence: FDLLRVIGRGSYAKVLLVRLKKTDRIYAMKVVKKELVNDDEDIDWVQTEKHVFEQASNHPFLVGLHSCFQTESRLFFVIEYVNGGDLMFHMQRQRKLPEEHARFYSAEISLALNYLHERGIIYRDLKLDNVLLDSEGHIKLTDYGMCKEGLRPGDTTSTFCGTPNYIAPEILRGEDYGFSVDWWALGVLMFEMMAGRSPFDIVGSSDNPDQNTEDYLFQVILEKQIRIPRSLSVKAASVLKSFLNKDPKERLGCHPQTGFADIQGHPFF
The assay can be described thus: co-IP; aPKCι kinase domain alone with FARP2; method not given, taken from its context (co-immunoprecipitation, deletion mapping).

In assay [3] the target is T1, GFP-tagged aPKCι. Put plainly: FRET or BRET; FRET-FLIM in cells; GFP–PKCι as donor, FARP2–FLAG labelled with an Alexa Fluor 647 antibody as acceptor; regions of cell membranes.

Substitutions are numbered along the chain they refer to. Names may count otherwise. Results are given in words; binding and its absence hold for the method and conditions named. Binding seen in cells or lysates may run through a third protein. Some results given as binding are weak or reduced against the parent protein; the word gives no strength. Sequences can lack the tags named with a protein.

B1: FLAG-tagged FARP1 (protein, UniProt Q9Y4F1 1-1045)
chain: MGEIEQRPTPGSRLGAPENSGISTLERGQKPPPTPSGKLVSIKIQMLDDTQEAFEVPQRAPGKVLLDAVCNHLNLVEGDYFGLEFPDHKKITVWLDLLKPIVKQIRRPKHVVVKFVVKFFPPDHTQLQEELTRYLFALQVKQDLAQGRLTCNDTSAALLISHIVQSEIGDFDEALDREHLAKNKYIPQQDALEDKIVEFHHNHIGQTPAESDFQLLEIARRLEMYGIRLHPAKDREGTKINLAVANTGILVFQGFTKINAFNWAKVRKLSFKRKRFLIKLRPDANSAYQDTLEFLMASRDFCKSFWKICVEHHAFFRLFEEPKPKPKPVLFSRGSSFRFSGRTQKQVLDYVKEGGHKKVQFERKHSKIHSIRSLASQPTELNSEVLEQSQQSTSLTFGEGAESPGGQSCRRGKEPKVSAGEPGSHPSPAPRRSPAGNKQADGAASAPTEEEEEVVKDRTQQSKPQPPQPSTGSLTGSPHLSELSVNSQGGVAPANVTLSPNLSPDTKQASPLISPLLNDQACPRTDDEDEGRRKRFPTDKAYFIAKEVSTTERTYLKDLEVITSWFQSTVSKEDAMPEALKSLIFPNFEPLHKFHTNFLKEIEQRLALWEGRSNAQIRDYQRIGDVMLKNIQGMKHLAAHLWKHSEALEALENGIKSSRRLENFCRDFELQKVCYLPLNTFLLRPLHRLMHYKQVLERLCKHHPPSHADFRDCRAALAEITEMVAQLHGTMIKMENFQKLHELKKDLIGIDNLVVPGREFIRLGSLSKLSGKGLQQRMFFLFNDVLLYTSRGLTASNQFKVHGQLPLYGMTIEESEDEWGVPHCLTLRGQRQSIIVAASSRSEMEKWVEDIQMAIDLAEKSSSPAPEFLASSPPDNKSPDEATAADQESEDDLSASRTSLERQAPHRGNTMVHVCWHRNTSVSMVDFSIAVENQLSGNLLRKFKNSNGWQKLWVVFTNFCLFFYKSHQDNHPLASLPLLGYSLTIPSESENIQKDYVFKLHFKSHVYYFRAESEYTFERWMEVIRSATSSASRPHVLSHKESLVY
Regarding B1, the binding result in the assay with GFP-tagged aPKCι [1] is given as “binds”.

B2: FARP2 S340A/S370A (protein, UniProt O94887 1-1054)
chain: MGEIEGTYRVLQTAGMRLGAQTPVGVSTLEPGQTLLPRMQEKHLHLRVKLLDNTMEIFDIEPKCDGQVLLTQVWKRLNLVECDYFGMEFQNTQSYWIWLEPMKPIIRQIRRPKNVVLRLAVKFFPPDPGQLQEEYTRYLFALQLKRDLLEERLTCADTTAALLTSHLLQSEIGDYDETLDREHLKVNEYLPGQQHCLEKILEFHQKHVGQTPAESDFQVLEIARKLEMYGIRFHMASDREGTKIQLAVSHMGVLVFQGTTKINTFNWSKVRKLSFKRKRFLIKLHPEVHGPYQDTLEFLLGSRDECKNFWKICVEYHTFFRLLDQPKPKAKAVFFSRGSAFRYSGRTQKQLVDYFKDSGMKRIPYERRHAKTHTSVRALTADLPKQSISFPEGLRTPASPSSANAFYSLSPSTLVPSGLPEFKDSSSSLTDPQVSYVKSPAAERRSGAVAGGPDTPSAQPLGPPALQPGPGLSTKSPQPSPSSRKSPLSLSPAFQVPLGPAEQGSSPLLSPVLSDAGGAGMDCEEPRHKRVPADEAYFIVKEILATERTYLKDLEVITVWFRSAVVKEDAMPATLMTLLFSNIDPIYEFHRGFLREVEQRLALWEGPSKAHTKGSHQRIGDILLRNMRQLKEFTSYFQRHDEVLTELEKATKRCKKLEAVYKEFELQKVCYLPLNTFLLKPIQRLLHYRLLLRRLCGHYSPGHHDYADCHDALKAITEVTTTLQHILIRLENLQKLTELQRDLVGIENLIAPGREFIREGCLHKLTKKGLQQRMFFLFSDMLLYTSKGVAGTSHFRIRGLLPLQGMLVEESDNEWSVPHCFTIYAAQKTIVVAASTRLEKEKWMLDLNSAIQAAKSGGDTAPALPGRTVCTRPPRSPNEVSLEQESEDDARGVRSSLEGHGQHRANTTMHVCWYRNTSVSRADHSAAVENQLSGYLLRKFKNSHGWQKLWVVFTNFCLFFYKTHQDDYPLASLPLLGYSVSIPREADGIHKDYVFKLQFKSHVYFFRAESKYTFERWMEVIQGASSSAGRAPSIVQDGPQPSSGLEGMVRGKEE
For the molecule B2, in the assay with GFP-tagged aPKCι [1], the binding result is on record as “binds”.

B3: FLAG-tagged FARP2 (WT) (protein, UniProt O94887 1-1054)
chain: B2 chain with A340S, A370S
For B3, the binding entry (in assay [2]; with GFP-tagged aPKCι [3]; with GFP-tagged aPKCι [1]) was “binds” throughout.

B4: FARP2 S340A (protein, UniProt O94887 1-1054)
chain: B2 chain with A370S
With B4, in the assay with GFP-tagged aPKCι [1], the binding entry is on record as “binds”.
